Consider 110 sequences from the supplement of paper PMC3334620.

Over roughly 33,000 sequences, “E-score (-0.5 to 0.5)” has its median near -0.015; the highest 2% begin near 0.3. The list shows a part of the results.

The target of the assay is T1, Abf1 (UniProt P14164).
T1 sequence: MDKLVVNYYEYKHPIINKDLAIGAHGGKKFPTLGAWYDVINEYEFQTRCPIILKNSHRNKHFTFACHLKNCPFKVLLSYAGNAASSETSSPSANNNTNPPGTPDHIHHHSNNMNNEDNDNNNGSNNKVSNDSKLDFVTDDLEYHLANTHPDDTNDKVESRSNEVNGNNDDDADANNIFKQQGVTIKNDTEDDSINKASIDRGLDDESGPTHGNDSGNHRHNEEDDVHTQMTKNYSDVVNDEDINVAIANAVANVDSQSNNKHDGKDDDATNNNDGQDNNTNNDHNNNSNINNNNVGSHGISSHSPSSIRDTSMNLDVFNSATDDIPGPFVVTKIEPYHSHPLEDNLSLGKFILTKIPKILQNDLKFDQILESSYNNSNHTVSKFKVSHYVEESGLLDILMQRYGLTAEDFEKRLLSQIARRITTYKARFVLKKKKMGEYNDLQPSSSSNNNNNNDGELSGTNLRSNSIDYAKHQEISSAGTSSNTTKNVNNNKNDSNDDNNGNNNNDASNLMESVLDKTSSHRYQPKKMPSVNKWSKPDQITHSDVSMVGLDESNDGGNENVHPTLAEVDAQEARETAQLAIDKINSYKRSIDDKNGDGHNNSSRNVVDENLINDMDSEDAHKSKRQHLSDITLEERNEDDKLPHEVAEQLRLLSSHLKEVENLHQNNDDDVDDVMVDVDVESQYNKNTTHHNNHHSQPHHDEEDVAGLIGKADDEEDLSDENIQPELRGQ
The assay can be described thus: PBM E-score (8-mer binding enrichment) (E-score (-0.5 to 0.5)); higher = stronger / more preferred TF binding. Particulars: protein concentration: 200 nM; construct: GST-full length. A digest of the protocol:
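Full-length yeast transcription factors or their DNA-binding domains, GST-tagged and expressed with PURExpress, were applied at about 100-200 nM to universal all-10-mer Agilent arrays. These arrays had been made double-stranded by primer extension on fresh or once-stripped slides. Detection used fluorescent anti-GST, normalisation used masliner, and E-scores for ungapped eight-base words pooled with reverse complements came from the Universal PBM Analysis Suite.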
In the case of AAGGCTAA, the “PBM E-score” value worked out at 0.0747.
The figure for GATGGAGC is -0.078; for GACTGCCC it is -0.279.
Turning to CACTTCTC, the “PBM E-score” value was 0.0401.
For the sequence ATTGCGAC, the “PBM E-score” value is 0.0678.
The result for CCTTACTC reads -0.192.
In the case of GCGGTGGA, the “PBM E-score” value was found to be 0.00972.
The figure for AGGCGGAT is -0.0114.
The result for AGCTTATC reads 0.0498; that for CGAGTGCA, 0.0614.
The result for CTCCCGAG reads -0.356; that for CGGCTGAG, -0.0713; that for GCATGTAC, 0.0456.
Regarding CTCGTAAG, the “PBM E-score” value was found to be 0.132.
The figure for CATAGCAA is -0.142; for GGTGAGCA it is -0.0811; for TGTTAAAA it is 0.211.
For CCTGAAGC, the “PBM E-score” value is -0.0841.
Regarding AAAAAGGA, the “PBM E-score” value is -0.189.
The result for ATATTAAA reads 0.33; that for CTTTACGA, 0.119; that for CGGTACCA, -0.0203.
For the sequence CGAAGTAG, the “PBM E-score” value turned out to be 0.0374.
The figure for AAGTCCTG is -0.265.
The result for TAAGGTGA reads 0.192.
On to ACGCAGGC, for which the “PBM E-score” value is -0.195.
In the case of CAGTAAAC, the “PBM E-score” value is -0.0465.
The result for ACGTTAGC reads 0.176; that for ATGTACTG, -0.022.
The result for CCTAGGCA reads -0.0159; that for GAGGCCTC, -0.0245; that for ACAACGAC, 0.0991.
The figure for ATTAATAC is 0.141; for ACGGCTCC it is 0.18.
Take CTCAGGTA: the “PBM E-score” value was -0.16.
Consider ACCTGGAC, for which the “PBM E-score” value is -0.144.
The figure for AGTAAAGA is -0.163.
In the case of AATTTATC, the “PBM E-score” value is 0.314.
On to AAAACTAT, for which the “PBM E-score” value stood at 0.0284.
For the sequence CAAGACAA, the “PBM E-score” value was found to be 0.146.
Regarding CTAGATAC, the “PBM E-score” value came out at 0.176.
The result for AATCGGAG reads -0.0257.
AGCCACCG: the “PBM E-score” value is -0.225.
Regarding CTAGGTCC, the “PBM E-score” value was -0.0604.
The figure for GGGTGCCA is -0.067.
For TGCTCCCA, the “PBM E-score” value is -0.0433.
On to AATCTTTG, for which the “PBM E-score” value is 0.0379.
The figure for GCAGCTGA is -0.00371; for CTACAAAA it is 0.139; for TTGTACAA it is -0.0801.
For the sequence AGGTAAAA, the “PBM E-score” value is -0.026.
The result for GCGACAGA reads -0.0736; that for GAACACCC, -0.278.
The figure for ATGGTTTG is -0.0664.
In the case of GAAGTCGA, the “PBM E-score” value was determined as 0.103.
The figure for GATTCCCC is -0.183.
The figure for AACTGTTG is -0.0805; for GCTCTCAA it is -0.0479.
The figure for AGCCAAGC is -0.188.
In the case of ATAGCAGA, the “PBM E-score” value is -0.112.
Regarding AAGCCGCA, the “PBM E-score” value is -0.197.
Regarding CAAAACAG, the “PBM E-score” value is -0.0367.
On to CTGGTACA, for which the “PBM E-score” value was 0.081.
For GGGGACTA, the “PBM E-score” value is -0.00253.
The figure for GAAAGGCC is 0.145; for GGGAACCA it is -0.249.
The result for ACACCCGG reads -0.145; that for AGTTGCAT, 0.011.
The figure for ACATTTCA is -0.0122.
Take ATAGTTCA: the “PBM E-score” value stood at 0.0426.
AATCCCGA: the “PBM E-score” value is -0.0401.
As to ATAATGCA, the “PBM E-score” value was -0.0446.
As to GCCGGAAC, the “PBM E-score” value was -0.143.
The result for CTTGCTCA reads -0.272; that for ACATACAT, 0.086; that for CGCAGCAC, 0.089.
The result for AGAGCATA reads -0.0347.
As for AATATGGG, the “PBM E-score” value is -0.131.
The result for CGTGGAAA reads 0.258; that for ACAGCAAA, 0.00185.
The figure for GCTCGGAC is -0.176; for ATTCTTGC it is -0.0146; for CGTCTGCC it is 0.118.
The figure for CTGGAATA is -0.0462; for GATATATC it is 0.332; for ACTGAGTA it is -0.144.
GTCCACAC: the “PBM E-score” value is 0.0601.
For AACTACGC, the “PBM E-score” value came out at 0.0207.
The figure for AAGACCAG is -0.24.
Regarding ACGGCGCG, the “PBM E-score” value came out at 0.324.
Consider ATAGCCGC, for which the “PBM E-score” value was -0.0864.
As to CGTCGACC, the “PBM E-score” value worked out at 0.0465.
In the case of ACTCCATA, the “PBM E-score” value was -0.0839.
The result for CACCGCAG reads -0.243; that for GTAGCAAC, 0.0376; that for CACGTTGG, 0.00181.
As to CGTTTAGA, the “PBM E-score” value was 0.152.
As for GAGCGCCA, the “PBM E-score” value was -0.0792.
Consider CTTACACA, for which the “PBM E-score” value was -0.224.
As for GTCACCCA, the “PBM E-score” value came to 0.0895.
The figure for AACAGGCA is -0.00595; for ACGATCTC it is 0.252.
The figure for ATATCGAA is 0.107.
The result for AAGAAAAC reads -0.1; that for ATACGGAC, 0.142.
On to CTATGTCC, for which the “PBM E-score” value is -0.022.
In the case of CCTGGTTC, the “PBM E-score” value is -0.207.
Turning to AAGGTTCT, the “PBM E-score” value was -0.189.
On to CGATTTTA, for which the “PBM E-score” value came to 0.148.
Take CCGTGAAC: the “PBM E-score” value turned out to be 0.131.
